Data published in PMC12848160.
These are yes or no findings as the source states them, for the method shown. Binding seen in cells or lysates may run through a third protein. Some entries that bind do so weakly or less than the wild type. For some assays here: Tags and fused reporters may be left off the sequences shown.

Protein sequences, listed by entry. Tags and fused reporters are not part of them.
UniProt P49336: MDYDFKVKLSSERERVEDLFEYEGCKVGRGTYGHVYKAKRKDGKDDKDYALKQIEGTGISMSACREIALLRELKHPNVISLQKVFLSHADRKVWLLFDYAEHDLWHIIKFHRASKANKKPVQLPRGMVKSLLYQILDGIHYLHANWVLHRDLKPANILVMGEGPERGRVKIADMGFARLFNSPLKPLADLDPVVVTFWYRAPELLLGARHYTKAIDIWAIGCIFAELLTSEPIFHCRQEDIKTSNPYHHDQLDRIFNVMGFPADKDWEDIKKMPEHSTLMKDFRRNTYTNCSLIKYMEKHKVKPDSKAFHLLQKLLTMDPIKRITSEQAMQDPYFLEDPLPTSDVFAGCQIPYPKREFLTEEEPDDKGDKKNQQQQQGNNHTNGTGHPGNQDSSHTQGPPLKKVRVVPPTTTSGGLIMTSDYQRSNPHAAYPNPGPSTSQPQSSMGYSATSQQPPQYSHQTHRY
UniProt P48382: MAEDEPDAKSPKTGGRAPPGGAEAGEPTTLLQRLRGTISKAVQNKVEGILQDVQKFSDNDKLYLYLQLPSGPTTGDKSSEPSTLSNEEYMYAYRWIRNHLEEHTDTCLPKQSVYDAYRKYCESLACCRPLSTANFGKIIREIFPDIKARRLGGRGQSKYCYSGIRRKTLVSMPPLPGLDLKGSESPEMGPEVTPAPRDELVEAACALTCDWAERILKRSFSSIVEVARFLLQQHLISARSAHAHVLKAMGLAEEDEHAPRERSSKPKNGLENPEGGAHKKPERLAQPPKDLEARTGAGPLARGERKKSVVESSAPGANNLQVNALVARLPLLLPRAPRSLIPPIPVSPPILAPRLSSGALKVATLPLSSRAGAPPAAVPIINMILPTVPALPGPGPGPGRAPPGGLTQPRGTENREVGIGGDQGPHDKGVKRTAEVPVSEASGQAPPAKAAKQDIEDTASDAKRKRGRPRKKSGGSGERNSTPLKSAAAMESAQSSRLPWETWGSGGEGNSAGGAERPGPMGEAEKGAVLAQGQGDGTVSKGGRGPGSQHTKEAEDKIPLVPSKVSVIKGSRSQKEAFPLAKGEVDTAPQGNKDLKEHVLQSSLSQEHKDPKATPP

How the values were obtained:
[1] = molecular target: Mediator kinase subunit CDK8 (UniProt P49336); assay: co-IP; immunoprecipitation with an antibody to CDK8; cells and conditions not told in the text shown (Supplementary Fig. 7H)
[2] = molecular target: T1, endogenous MED23 (with a knock-in HA-tag) (human (endogenous in 293T)) (UniProt Q9ULK4); assay: co-IP; 293T cells with HA-tag knocked in at the MED23 locus (WT 293T as control); lysis in PBS with 5 mM EDTA, 1% Triton X-100; anti-HA beads, 4 °C overnight; Western blot
T1 sequence: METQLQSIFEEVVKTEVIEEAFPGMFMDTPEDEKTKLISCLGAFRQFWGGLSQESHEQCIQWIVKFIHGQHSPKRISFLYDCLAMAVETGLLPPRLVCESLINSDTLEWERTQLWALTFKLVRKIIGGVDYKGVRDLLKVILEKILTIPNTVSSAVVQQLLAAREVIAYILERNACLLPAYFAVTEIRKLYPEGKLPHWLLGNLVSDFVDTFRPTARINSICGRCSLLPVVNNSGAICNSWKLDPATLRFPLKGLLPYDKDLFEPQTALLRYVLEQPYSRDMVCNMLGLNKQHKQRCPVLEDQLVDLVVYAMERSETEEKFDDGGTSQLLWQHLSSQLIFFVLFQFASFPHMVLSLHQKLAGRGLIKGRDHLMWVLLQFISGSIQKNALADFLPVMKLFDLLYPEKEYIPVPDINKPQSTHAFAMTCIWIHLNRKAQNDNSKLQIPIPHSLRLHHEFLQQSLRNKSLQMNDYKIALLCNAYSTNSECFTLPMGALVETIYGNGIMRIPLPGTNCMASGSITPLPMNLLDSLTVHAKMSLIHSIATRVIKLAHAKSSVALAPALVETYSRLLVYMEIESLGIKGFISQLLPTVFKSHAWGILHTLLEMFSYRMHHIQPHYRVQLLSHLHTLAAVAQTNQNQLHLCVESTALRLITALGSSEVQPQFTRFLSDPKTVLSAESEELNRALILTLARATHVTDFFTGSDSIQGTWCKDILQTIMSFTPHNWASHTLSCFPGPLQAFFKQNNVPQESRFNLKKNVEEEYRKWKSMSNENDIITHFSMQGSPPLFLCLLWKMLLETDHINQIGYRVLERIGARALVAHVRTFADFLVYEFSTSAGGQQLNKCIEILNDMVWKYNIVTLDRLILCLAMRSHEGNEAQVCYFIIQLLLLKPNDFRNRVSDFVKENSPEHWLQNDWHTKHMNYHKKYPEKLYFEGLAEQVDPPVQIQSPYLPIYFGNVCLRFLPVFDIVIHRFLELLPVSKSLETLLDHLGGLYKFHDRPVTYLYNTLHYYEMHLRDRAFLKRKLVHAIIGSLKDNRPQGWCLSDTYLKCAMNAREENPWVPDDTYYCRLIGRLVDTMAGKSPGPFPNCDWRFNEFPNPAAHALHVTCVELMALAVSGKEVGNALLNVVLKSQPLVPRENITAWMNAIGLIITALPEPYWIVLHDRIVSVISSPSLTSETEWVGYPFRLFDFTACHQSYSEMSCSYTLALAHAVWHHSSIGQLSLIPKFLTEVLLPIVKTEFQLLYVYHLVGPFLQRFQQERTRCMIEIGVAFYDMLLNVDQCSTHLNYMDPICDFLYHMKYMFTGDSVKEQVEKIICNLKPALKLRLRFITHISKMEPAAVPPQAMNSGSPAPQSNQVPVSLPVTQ

| Substance | binding [1] | binding [2] |
| --- | --- | --- |
| RFX5 (in the CDK8 immunoprecipitate) (from UniProt P48382 1-616) | binds |  |
| endogenous RFX5 (from UniProt P48382 1-616) |  | binds |
